Results published in PMC7364817.
No constants are given. Whether binding was seen depends on the method and setting. Binding seen in cells or lysates may run through a third protein. Here binding means that the protein was enriched with, or labelled near, the bait; the list need not be complete. Where a sequence is shown, tags or fusion partners need not be part of it.

By UniProt entry, the sequences of proteins in these tests, tags left out. Residues count along the entry.
UniProt P41091: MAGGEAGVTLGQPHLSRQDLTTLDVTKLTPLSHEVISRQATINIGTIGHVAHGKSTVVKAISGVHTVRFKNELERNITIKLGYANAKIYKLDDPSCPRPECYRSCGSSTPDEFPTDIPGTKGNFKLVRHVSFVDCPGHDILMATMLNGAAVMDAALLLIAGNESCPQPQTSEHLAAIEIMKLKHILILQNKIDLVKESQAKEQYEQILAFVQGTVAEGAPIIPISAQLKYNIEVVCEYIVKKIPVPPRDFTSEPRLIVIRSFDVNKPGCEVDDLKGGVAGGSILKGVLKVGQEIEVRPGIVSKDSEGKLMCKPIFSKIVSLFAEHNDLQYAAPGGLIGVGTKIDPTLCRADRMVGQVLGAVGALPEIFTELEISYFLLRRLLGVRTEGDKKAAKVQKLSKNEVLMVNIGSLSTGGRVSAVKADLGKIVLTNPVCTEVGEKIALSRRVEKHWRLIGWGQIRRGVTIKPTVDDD
UniProt Q5D862: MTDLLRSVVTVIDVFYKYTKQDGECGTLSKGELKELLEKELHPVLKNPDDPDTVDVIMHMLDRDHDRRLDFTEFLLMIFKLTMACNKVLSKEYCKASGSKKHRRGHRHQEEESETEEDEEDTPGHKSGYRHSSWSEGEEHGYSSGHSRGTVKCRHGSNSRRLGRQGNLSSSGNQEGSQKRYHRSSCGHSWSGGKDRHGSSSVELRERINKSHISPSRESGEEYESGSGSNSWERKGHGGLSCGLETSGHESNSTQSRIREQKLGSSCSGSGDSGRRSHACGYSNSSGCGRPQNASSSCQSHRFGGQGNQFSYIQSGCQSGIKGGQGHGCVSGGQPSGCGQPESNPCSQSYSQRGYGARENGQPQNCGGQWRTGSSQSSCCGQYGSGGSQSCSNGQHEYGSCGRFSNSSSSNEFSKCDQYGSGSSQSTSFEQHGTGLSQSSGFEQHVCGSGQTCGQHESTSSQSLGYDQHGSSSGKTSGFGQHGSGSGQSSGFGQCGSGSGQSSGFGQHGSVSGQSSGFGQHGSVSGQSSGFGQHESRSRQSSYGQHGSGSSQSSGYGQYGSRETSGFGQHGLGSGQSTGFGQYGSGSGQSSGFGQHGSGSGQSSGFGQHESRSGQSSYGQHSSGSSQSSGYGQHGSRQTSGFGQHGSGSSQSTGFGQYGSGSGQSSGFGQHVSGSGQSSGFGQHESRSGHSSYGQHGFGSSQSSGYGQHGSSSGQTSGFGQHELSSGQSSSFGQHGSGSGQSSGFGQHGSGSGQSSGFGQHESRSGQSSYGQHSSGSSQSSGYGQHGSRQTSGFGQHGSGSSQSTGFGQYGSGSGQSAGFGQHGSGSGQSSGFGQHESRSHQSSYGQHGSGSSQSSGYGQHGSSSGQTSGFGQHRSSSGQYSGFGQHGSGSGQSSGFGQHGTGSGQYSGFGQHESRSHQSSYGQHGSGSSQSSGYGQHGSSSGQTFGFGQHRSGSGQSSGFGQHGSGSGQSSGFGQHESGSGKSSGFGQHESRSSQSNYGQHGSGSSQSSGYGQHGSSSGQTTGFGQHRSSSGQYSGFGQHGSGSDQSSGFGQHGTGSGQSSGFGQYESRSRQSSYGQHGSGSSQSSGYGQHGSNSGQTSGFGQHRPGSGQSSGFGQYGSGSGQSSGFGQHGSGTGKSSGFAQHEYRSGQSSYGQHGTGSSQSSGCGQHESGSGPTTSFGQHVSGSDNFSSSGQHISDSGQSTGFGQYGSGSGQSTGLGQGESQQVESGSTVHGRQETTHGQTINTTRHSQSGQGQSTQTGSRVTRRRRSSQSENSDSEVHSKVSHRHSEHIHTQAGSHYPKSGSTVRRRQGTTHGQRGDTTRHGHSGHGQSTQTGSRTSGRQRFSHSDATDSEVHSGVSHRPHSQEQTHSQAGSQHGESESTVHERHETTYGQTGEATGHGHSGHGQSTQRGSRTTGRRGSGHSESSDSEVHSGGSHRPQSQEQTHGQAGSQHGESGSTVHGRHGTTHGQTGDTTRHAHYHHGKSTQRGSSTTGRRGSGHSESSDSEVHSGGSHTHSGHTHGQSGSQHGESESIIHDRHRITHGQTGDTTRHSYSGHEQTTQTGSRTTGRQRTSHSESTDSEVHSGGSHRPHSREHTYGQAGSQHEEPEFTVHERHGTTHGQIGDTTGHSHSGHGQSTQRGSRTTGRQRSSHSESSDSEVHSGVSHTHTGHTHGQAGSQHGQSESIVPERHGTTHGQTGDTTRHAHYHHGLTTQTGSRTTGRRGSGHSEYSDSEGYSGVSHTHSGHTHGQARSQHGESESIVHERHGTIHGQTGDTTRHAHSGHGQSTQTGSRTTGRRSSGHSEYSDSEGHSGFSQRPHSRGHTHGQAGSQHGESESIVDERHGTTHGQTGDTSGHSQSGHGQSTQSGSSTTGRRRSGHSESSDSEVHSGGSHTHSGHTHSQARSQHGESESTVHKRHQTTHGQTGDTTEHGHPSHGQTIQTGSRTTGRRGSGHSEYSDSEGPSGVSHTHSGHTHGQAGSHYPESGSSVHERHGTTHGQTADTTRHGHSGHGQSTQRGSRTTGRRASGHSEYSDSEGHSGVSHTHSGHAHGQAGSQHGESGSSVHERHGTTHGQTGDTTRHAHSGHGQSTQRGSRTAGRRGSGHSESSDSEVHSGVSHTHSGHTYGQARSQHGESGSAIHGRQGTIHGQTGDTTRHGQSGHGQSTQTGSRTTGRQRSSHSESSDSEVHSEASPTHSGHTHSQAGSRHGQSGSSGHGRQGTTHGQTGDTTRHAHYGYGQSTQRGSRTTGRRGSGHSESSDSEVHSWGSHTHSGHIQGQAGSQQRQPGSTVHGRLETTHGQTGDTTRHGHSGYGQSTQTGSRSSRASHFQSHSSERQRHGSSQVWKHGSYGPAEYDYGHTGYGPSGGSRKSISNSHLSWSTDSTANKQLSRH
UniProt P40939, residues 37-763: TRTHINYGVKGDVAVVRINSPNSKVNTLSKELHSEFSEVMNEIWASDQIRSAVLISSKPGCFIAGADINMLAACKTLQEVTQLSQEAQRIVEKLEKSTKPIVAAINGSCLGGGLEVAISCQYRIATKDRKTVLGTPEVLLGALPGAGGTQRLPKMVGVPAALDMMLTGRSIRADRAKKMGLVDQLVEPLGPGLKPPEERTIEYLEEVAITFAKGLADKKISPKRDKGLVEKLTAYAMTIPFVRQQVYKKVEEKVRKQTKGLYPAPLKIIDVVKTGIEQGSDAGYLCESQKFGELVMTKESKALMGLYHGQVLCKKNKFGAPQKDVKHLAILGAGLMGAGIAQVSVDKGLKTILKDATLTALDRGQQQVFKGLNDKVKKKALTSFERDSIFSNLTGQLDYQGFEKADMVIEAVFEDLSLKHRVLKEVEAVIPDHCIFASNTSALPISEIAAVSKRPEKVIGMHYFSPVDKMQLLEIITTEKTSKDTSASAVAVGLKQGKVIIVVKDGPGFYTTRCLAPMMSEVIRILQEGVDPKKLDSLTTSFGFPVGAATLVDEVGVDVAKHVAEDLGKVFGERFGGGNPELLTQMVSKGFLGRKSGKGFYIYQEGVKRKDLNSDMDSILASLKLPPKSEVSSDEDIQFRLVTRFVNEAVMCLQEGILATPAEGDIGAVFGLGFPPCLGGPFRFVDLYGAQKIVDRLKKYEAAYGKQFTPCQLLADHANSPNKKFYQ
UniProt Q9NZT1: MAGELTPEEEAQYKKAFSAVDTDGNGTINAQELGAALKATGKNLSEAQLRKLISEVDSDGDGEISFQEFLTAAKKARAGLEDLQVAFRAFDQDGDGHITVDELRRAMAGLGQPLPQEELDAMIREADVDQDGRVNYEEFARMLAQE
UniProt P53618: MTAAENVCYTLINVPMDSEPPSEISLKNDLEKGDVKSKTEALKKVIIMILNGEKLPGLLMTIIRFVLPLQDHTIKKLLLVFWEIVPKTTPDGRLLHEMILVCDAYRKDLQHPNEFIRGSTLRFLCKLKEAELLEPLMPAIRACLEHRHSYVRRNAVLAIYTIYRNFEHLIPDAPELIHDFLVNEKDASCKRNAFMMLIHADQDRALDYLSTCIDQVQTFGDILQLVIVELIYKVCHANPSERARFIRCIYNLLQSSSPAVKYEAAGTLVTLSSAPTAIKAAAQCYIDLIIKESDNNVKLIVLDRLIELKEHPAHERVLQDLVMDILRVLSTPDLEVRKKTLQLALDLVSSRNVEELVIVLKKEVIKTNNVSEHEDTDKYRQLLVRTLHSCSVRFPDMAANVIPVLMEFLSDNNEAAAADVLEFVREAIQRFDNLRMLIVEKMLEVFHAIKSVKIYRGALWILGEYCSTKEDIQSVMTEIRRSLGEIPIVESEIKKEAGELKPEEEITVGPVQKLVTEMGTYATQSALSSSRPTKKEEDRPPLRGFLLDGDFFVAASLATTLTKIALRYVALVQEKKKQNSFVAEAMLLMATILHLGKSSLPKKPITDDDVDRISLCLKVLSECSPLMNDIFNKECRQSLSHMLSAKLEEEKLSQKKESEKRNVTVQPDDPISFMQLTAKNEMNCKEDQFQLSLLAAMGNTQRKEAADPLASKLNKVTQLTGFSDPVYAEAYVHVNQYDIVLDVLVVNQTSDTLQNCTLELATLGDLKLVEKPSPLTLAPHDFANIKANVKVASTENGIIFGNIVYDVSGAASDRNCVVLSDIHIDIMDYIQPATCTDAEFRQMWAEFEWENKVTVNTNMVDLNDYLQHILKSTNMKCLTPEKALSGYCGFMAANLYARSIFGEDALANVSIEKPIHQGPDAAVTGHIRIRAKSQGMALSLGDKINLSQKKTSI
UniProt Q01469: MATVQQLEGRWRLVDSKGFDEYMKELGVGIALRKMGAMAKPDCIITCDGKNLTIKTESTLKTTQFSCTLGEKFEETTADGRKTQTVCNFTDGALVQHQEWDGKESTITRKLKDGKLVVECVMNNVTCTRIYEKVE

T1: C9orf72 long isoform with C-terminal FLAG tag (human) (UniProt Q96LT7)
T1 sequence: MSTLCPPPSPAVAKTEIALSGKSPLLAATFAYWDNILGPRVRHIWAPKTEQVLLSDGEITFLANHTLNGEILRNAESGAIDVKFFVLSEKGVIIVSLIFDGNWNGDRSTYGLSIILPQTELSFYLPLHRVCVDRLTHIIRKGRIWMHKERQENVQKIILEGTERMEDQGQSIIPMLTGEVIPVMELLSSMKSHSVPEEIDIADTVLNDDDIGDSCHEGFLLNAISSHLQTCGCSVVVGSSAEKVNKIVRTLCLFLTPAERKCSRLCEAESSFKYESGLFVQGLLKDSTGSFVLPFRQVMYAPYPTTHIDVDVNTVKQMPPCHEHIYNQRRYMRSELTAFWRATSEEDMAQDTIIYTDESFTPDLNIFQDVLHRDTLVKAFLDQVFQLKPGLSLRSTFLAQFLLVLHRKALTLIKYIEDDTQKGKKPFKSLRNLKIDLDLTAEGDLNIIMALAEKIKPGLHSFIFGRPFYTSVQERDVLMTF

T2: FLAG-tagged SMCR8 (Smith-Magenis Syndrome Chromosome Region, Candidate 8) (UniProt Q8TEV9)
T2 sequence: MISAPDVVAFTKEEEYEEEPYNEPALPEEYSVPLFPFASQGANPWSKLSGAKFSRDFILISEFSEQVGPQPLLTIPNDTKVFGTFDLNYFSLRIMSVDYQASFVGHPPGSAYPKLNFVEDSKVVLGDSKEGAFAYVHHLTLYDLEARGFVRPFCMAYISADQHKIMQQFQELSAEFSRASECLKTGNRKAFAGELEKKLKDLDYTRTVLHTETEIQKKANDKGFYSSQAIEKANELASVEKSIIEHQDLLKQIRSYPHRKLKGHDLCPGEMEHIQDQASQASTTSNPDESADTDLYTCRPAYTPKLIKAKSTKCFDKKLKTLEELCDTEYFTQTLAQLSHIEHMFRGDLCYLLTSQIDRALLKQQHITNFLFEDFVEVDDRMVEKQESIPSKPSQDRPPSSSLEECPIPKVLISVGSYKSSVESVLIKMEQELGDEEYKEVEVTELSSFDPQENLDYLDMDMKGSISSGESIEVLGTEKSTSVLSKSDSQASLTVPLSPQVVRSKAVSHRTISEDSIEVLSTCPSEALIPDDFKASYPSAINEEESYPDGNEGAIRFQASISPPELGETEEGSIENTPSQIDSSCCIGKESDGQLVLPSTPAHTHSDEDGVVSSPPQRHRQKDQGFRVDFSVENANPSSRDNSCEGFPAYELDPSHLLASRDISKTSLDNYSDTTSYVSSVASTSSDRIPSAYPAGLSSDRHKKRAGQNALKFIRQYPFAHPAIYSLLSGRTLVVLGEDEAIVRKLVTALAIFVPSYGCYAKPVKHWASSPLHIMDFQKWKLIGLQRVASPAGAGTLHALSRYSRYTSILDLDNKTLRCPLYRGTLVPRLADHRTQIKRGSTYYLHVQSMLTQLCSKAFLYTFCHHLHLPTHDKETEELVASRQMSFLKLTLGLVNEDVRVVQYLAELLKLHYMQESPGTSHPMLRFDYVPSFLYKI

B1: structural maintenance of chromosomes 1A (protein, UniProt Q14683 1-1233)
chain: MGFLKLIEIENFKSYKGRQIIGPFQRFTAIIGPNGSGKSNLMDAISFVLGEKTSNLRVKTLRDLIHGAPVGKPAANRAFVSMVYSEEGAEDRTFARVIVGGSSEYKINNKVVQLHEYSEELEKLGILIKARNFLVFQGAVESIAMKNPKERTALFEEISRSGELAQEYDKRKKEMVKAEEDTQFNYHRKKNIAAERKEAKQEKEEADRYQRLKDEVVRAQVQLQLFKLYHNEVEIEKLNKELASKNKEIEKDKKRMDKVEDELKEKKKELGKMMREQQQIEKEIKEKDSELNQKRPQYIKAKENTSHKIKKLEAAKKSLQNAQKHYKKRKGDMDELEKEMLSVEKARQEFEERMEEESQSQGRDLTLEENQVKKYHRLKEEASKRAATLAQELEKFNRDQKADQDRLDLEERKKVETEAKIKQKLREIEENQKRIEKLEEYITTSKQSLEEQKKLEGELTEEVEMAKRRIDEINKELNQVMEQLGDARIDRQESSRQQRKAEIMESIKRLYPGSVYGRLIDLCQPTQKKYQIAVTKVLGKNMDAIIVDSEKTGRDCIQYIKEQRGEPETFLPLDYLEVKPTDEKLRELKGAKLVIDVIRYEPPHIKKALQYACGNALVCDNVEDARRIAFGGHQRHKTVALDGTLFQKSGVISGGASDLKAKARRWDEKAVDKLKEKKERLTEELKEQMKAKRKEAELRQVQSQAHGLQMRLKYSQSDLEQTKTRHLALNLQEKSKLESELANFGPRINDIKRIIQSREREMKDLKEKMNQVEDEVFEEFCREIGVRNIREFEEEKVKRQNEIAKKRLEFENQKTRLGIQLDFEKNQLKEDQDKVHMWEQTVKKDENEIEKLKKEEQRHMKIIDETMAQLQDLKNQHLAKKSEVNDKNHEMEEIRKKLGGANKEMTHLQKEVTAIETKLEQKRSDRHNLLQACKMQDIKLPLSKGTMDDISQEEGSSQGEDSVSGSQRISSIYAREALIEIDYGDLCEDLKDAQAEEEIKQEMNTLQQKLNEQQSVLQRIAAPNMKAMEKLESVRDKFQETSDEFEAARKRAKKAKQAFEQIKKERFDRFNACFESVATNIDEIYKALSRNSSAQAFLGPENPEEPYLDGINYNCVAPGKRFRPMDNLSGGEKTVAALALLFAIHSYKPAPFFVLDEIDAALDNTNIGKVANYIKEQSTCNFQAIVISLKEEFYTKAESLIGVYPEQGDCVISKVLTFDLTKYPDANPNPNEQ
B2: DnaJ heat shock protein family (Hsp40) member C10 (protein, UniProt Q8IXB1 33-793)
chain: DQDFYSLLGVSKTASSREIRQAFKKLALKLHPDKNPNNPNAHGDFLKINRAYEVLKDEDLRKKYDKYGEKGLEDNQGGQYESWNYYRYDFGIYDDDPEIITLERREFDAAVNSGELWFVNFYSPGCSHCHDLAPTWRDFAKEVDGLLRIGAVNCGDDRMLCRMKGVNSYPSLFIFRSGMAPVKYHGDRSKESLVSFAMQHVRSTVTELWTGNFVNSIQTAFAAGIGWLITFCSKGGDCLTSQTRLRLSGMLDGLVNVGWMDCATQDNLCKSLDITTSTTAYFPPGATLNNKEKNSILFLNSLDAKEIYLEVIHNLPDFELLSANTLEDRLAHHRWLLFFHFGKNENSNDPELKKLKTLLKNDHIQVGRFDCSSAPDICSNLYVFQPSLAVFKGQGTKEYEIHHGKKILYDILAFAKESVNSHVTTLGPQNFPANDKEPWLVDFFAPWCPPCRALLPELRRASNLLYGQLKFGTLDCTVHEGLCNMYNIQAYPTTVVFNQSNIHEYEGHHSAEQILEFIEDLMNPSVVSLTPTTFNELVTQRKHNEVWMVDFYSPWCHPCQVLMPEWKRMARTLTGLINVGSIDCQQYHSFCAQENVQRYPEIRFFPPKSNKAYHYHSYNGWNRDAYSLRIWGLGFLPQVSTDLTPQTFSEKVLQGKNHWVIDFYAPWCGPCQNFAPEFELLARMIKGKVKAGKVDCQAYAQTCQKAGIRAYPTVKFYFYERAKRNFQEEQINTRDAKAIAALISEKLETLRNQGKRNKDEL
B3: DNA polymerase delta 3, accessory subunit (protein, UniProt Q15054 1-466)
chain: MADQLYLENIDEFVTDQNKIVTYKWLSYTLGVHVNQAKQMLYDYVERKRKENSGAQLHVTYLVSGSLIQNGHSCHKVAVVREDKLEAVKSKLAVTASIHVYSIQKAMLKDSGPLFNTDYDILKSNLQNCSKFSAIQCAAAVPRAPAESSSSSKKFEQSHLHMSSETQANNELTTNGHGPPASKQVSQQPKGIMGMFASKAAAKTQETNKETKTEAKEVTNASAAGNKAPGKGNMMSNFFGKAAMNKFKVNLDSEQAVKEEKIVEQPTVSVTEPKLATPAGLKKSSKKAEPVKVLQKEKKRGKRVALSDDETKETENMRKKRRRIKLPESDSSEDEVFPDSPGAYEAESPSPPPPPSPPLEPVPKTEPEPPSVKSSSGENKRKRKRVLKSKTYLDGEGCIVTEKVYESESCTDSEEELNMKTSSVHRPPAMTVKKEPREERKGPKKGTAALGKANRQVSITGFFQRK
B4: unc-45 myosin chaperone A (protein, UniProt Q9H3U1 1-944)
chain: MTVSGPGTPEPRPATPGASSVEQLRKEGNELFKCGDYGGALAAYTQALGLDATPQDQAVLHRNRAACHLKLEDYDKAETEASKAIEKDGGDVKALYRRSQALEKLGRLDQAVLDLQRCVSLEPKNKVFQEALRNIGGQIQEKVRYMSSTDAKVEQMFQILLDPEEKGTEKKQKASQNLVVLAREDAGAEKIFRSNGVQLLQRLLDMGETDLMLAALRTLVGICSEHQSRTVATLSILGTRRVVSILGVESQAVSLAACHLLQVMFDALKEGVKKGFRGKEGAIIVDPARELKVLISNLLDLLTEVGVSGQGRDNALTLLIKAVPRKSLKDPNNSLTLWVIDQGLKKILEVGGSLQDPPGELAVTANSRMSASILLSKLFDDLKCDAERENFHRLCENYIKSWFEGQGLAGKLRAIQTVSCLLQGPCDAGNRALELSGVMESVIALCASEQEEEQLVAVEALIHAAGKAKRASFITANGVSLLKDLYKCSEKDSIRIRALVGLCKLGSAGGTDFSMKQFAEGSTLKLAKQCRKWLCNDQIDAGTRRWAVEGLAYLTFDADVKEEFVEDAAALKALFQLSRLEERSVLFAVASALVNCTNSYDYEEPDPKMVELAKYAKQHVPEQHPKDKPSFVRARVKKLLAAGVVSAMVCMVKTESPVLTSSCRELLSRVFLALVEEVEDRGTVVAQGGGRALIPLALEGTDVGQTKAAQALAKLTITSNPEMTFPGERIYEVVRPLVSLLHLNCSGLQNFEALMALTNLAGISERLRQKILKEKAVPMIEGYMFEEHEMIRRAATECMCNLAMSKEVQDLFEAQGNDRLKLLVLYSGEDDELLQRAAAGGLAMLTSMRPTLCSRIPQVTTHWLEILQALLLSSNQELQHRGAVVVLNMVEASREIASTLMESEMMEILSVLAKGDHSPVTRAAAACLDKAVEYGLIQPNQDGE
B5: single stranded DNA binding protein 1 (protein, UniProt Q04837 17-148)
chain: ESETTTSLVLERSLNRVHLLGRVGQDPVLRQVEGKNPVTIFSLATNEMWRSGDSEVYQLGDVSQKTTWHRISVFRPGLRDVAYQYVKKGSRIYLEGKIDYGEYMDKNNVRRQATTIIADNIIFLSDQTKEKE
B6: serpin family H member 1 (protein, UniProt P50454 19-418)
chain: AEVKKPAAAAAPGTAEKLSPKAATLAERSAGLAFSLYQAMAKDQAVENILVSPVVVASSLGLVSLGGKATTASQAKAVLSAEQLRDEEVHAGLGELLRSLSNSTARNVTWKLGSRLYGPSSVSFADDFVRSSKQHYNCEHSKINFRDKRSALQSINEWAAQTTDGKLPEVTKDVERTDGALLVNAMFFKPHWDEKFHHKMVDNRGFMVTRSYTVGVMMMHRTGLYNYYDDEKEKLQIVEMPLAHKLSSLIILMPHHVEPLERLEKLLTKEQLKIWMGKMQKKAVAISLPKGVVEVTHDLQKHLAGLGLTEAIDKNKADLSRMSGKKDLYLASVFHATAFELDTDGNPFDQDIYGREELRSPKLFYADHPFIFLVRDTQSGSLLFIGRLVRPKGDKMRDEL

Each molecule was assayed against T1, C9orf72 long isoform with C-terminal FLAG tag (human) (assay: affinity purification with mass spectrometry; FL-SMCR8, C9orf72-FL or empty vector transfected in HEK 293T; α-FLAG agarose IP from whole cell lysates with or without RNase; LC-MS/MS; hits with three or more spectra and not detected in vector only control).

binding, binds:
eukaryotic translation initiation factor 2 subunit gamma (from UniProt P41091 1-472)
filaggrin family member 2 (from UniProt Q5D862 1-2391)
hydroxyacyl-CoA dehydrogenase/3-ketoacyl-CoA thiolase/enoyl-CoA hydratase, alpha subunit (from UniProt P40939 37-763)
calmodulin like 5 (from UniProt Q9NZT1 1-146)
coatomer protein complex subunit beta 1 (from UniProt P53618 1-953)
fatty acid binding protein 5 (from UniProt Q01469 1-135)

These molecules were tested against T2, FLAG-tagged SMCR8 (Smith-Magenis Syndrome Chromosome Region, Candidate 8) in the same assay as above.

binding, binds:
B1
B2
B3
B4
B5
B6
